# Assay results taken from the supplement of paper PMC11438910.
# This is one part of the list. The signal is at background level for most entries.
# Tests used:
# Test in all cases: fluorescence intensity of antibody binding to polysaccharide-coupled beads; higher = stronger binding
# [1] = target: pneumococcal polysaccharide Pn41A
# [2] = target: pneumococcal polysaccharide Pn41F
# [3] = target: pneumococcal polysaccharide Pn42
# [4] = target: pneumococcal polysaccharide Pn43
# [5] = target: pneumococcal polysaccharide Pn44
# [6] = target: pneumococcal polysaccharide Pn45
# [7] = target: pneumococcal polysaccharide Pn46
# [8] = target: pneumococcal polysaccharide Pn47A
# [9] = target: pneumococcal polysaccharide Pn47F
# [10] = target: pneumococcal polysaccharide Pn48
# [11] = target: pneumococcal polysaccharide Pn5
# [12] = target: pneumococcal polysaccharide Pn6A
# [13] = antibody concentration 2.8593 ng/mL
# [14] = antibody concentration 15.2894 ng/mL
# [15] = antibody concentration 81.7561 ng/mL
# [16] = antibody concentration 437.17 ng/mL
# [17] = antibody concentration 2337.65 ng/mL
# [18] = antibody concentration 12500 ng/mL
# [19] = antibody concentration 0.1 ng/mL
# [20] = antibody concentration 0.534724 ng/mL
binder,measurement,setting,value
4-99.3 (protein) chain 1: QVQLQESGPGLVKPSETLSLTCAVSGYSISSGYYWGWIRQPPGKGLEYIGYISGSWGKSYYKPSLKSRVTISKDTSKNQFSLTLSSVTAADTAVYYCARRLEYVGFDVWGPGVLVTVSS chain 2: QAAPTQPPSVSGSPGQSVTISCTGTSSDIGYYNAVSWYQQHPGKAPKLMIYEVSKRPSGVSDRFSGSKSGNTASLTISGLQAEDEADYYCSSYAGSNTYIFGSGTRLTVL,fluorescence intensity,[1]; [13],22 MFI
same,fluorescence intensity,[1]; [14],21.5 MFI
same,fluorescence intensity,[1]; [15],23.5 MFI
same,fluorescence intensity,[1]; [16],24 MFI
same,fluorescence intensity,[1]; [17],24.8 MFI
same,fluorescence intensity,[1]; [18],38.2 MFI
same,fluorescence intensity,[2]; [19],13 MFI
same,fluorescence intensity,[2]; [20],11.5 MFI
same,fluorescence intensity,[2]; [13],11.5 MFI
same,fluorescence intensity,[2]; [14],11 MFI
same,fluorescence intensity,[2]; [15],13.5 MFI
same,fluorescence intensity,[2]; [16],13 MFI
same,fluorescence intensity,[2]; [17],16 MFI
same,fluorescence intensity,[2]; [18],37 MFI
same,fluorescence intensity,[3]; [19],11 MFI
same,fluorescence intensity,[3]; [20],11 MFI
same,fluorescence intensity,[3]; [13],10.5 MFI
same,fluorescence intensity,[3]; [14],11 MFI
same,fluorescence intensity,[3]; [15],12.2 MFI
same,fluorescence intensity,[3]; [16],12 MFI
same,fluorescence intensity,[3]; [17],16 MFI
same,fluorescence intensity,[3]; [18],84.5 MFI
same,fluorescence intensity,[4]; [19],15.5 MFI
same,fluorescence intensity,[4]; [20],14.5 MFI
same,fluorescence intensity,[4]; [13],15.5 MFI
same,fluorescence intensity,[4]; [14],14 MFI
same,fluorescence intensity,[4]; [15],15.5 MFI
same,fluorescence intensity,[4]; [16],19.5 MFI
same,fluorescence intensity,[4]; [17],41.5 MFI
same,fluorescence intensity,[4]; [18],470 MFI
same,fluorescence intensity,[5]; [19],24 MFI
same,fluorescence intensity,[5]; [20],23.5 MFI
same,fluorescence intensity,[5]; [13],23.5 MFI
same,fluorescence intensity,[5]; [14],23.5 MFI
same,fluorescence intensity,[5]; [15],23.5 MFI
same,fluorescence intensity,[5]; [16],25.8 MFI
same,fluorescence intensity,[5]; [17],27.5 MFI
same,fluorescence intensity,[5]; [18],50.8 MFI
same,fluorescence intensity,[6]; [19],10.8 MFI
same,fluorescence intensity,[6]; [20],9.5 MFI
same,fluorescence intensity,[6]; [13],11 MFI
same,fluorescence intensity,[6]; [14],10.8 MFI
same,fluorescence intensity,[6]; [15],11.5 MFI
same,fluorescence intensity,[6]; [16],11 MFI
same,fluorescence intensity,[6]; [17],14.5 MFI
same,fluorescence intensity,[6]; [18],29 MFI
same,fluorescence intensity,[7]; [19],23.5 MFI
same,fluorescence intensity,[7]; [20],22.5 MFI
same,fluorescence intensity,[7]; [13],22.5 MFI
same,fluorescence intensity,[7]; [14],22 MFI
same,fluorescence intensity,[7]; [15],23 MFI
same,fluorescence intensity,[7]; [16],25 MFI
same,fluorescence intensity,[7]; [17],33.2 MFI
same,fluorescence intensity,[7]; [18],160 MFI
same,fluorescence intensity,[8]; [19],15 MFI
same,fluorescence intensity,[8]; [20],15.5 MFI
same,fluorescence intensity,[8]; [13],14.5 MFI
same,fluorescence intensity,[8]; [14],15.5 MFI
same,fluorescence intensity,[8]; [15],16 MFI
same,fluorescence intensity,[8]; [16],15 MFI
same,fluorescence intensity,[8]; [17],18.5 MFI
same,fluorescence intensity,[8]; [18],51 MFI
same,fluorescence intensity,[9]; [19],11 MFI
same,fluorescence intensity,[9]; [20],11.5 MFI
same,fluorescence intensity,[9]; [13],11 MFI
same,fluorescence intensity,[9]; [14],11.5 MFI
same,fluorescence intensity,[9]; [15],12.5 MFI
same,fluorescence intensity,[9]; [16],12.2 MFI
same,fluorescence intensity,[9]; [17],19.5 MFI
same,fluorescence intensity,[9]; [18],158 MFI
same,fluorescence intensity,[10]; [19],20.5 MFI
same,fluorescence intensity,[10]; [20],19.8 MFI
same,fluorescence intensity,[10]; [13],20 MFI
same,fluorescence intensity,[10]; [14],21 MFI
same,fluorescence intensity,[10]; [15],21.5 MFI
same,fluorescence intensity,[10]; [16],24.8 MFI
same,fluorescence intensity,[10]; [17],29 MFI
same,fluorescence intensity,[10]; [18],86.5 MFI
same,fluorescence intensity,[11]; [19],8.25 MFI
same,fluorescence intensity,[11]; [20],8 MFI
same,fluorescence intensity,[11]; [13],9 MFI
same,fluorescence intensity,[11]; [14],9 MFI
same,fluorescence intensity,[11]; [15],9.5 MFI
same,fluorescence intensity,[11]; [16],11.5 MFI
same,fluorescence intensity,[11]; [17],20.5 MFI
same,fluorescence intensity,[11]; [18],183 MFI
same,fluorescence intensity,[12]; [19],20.5 MFI
same,fluorescence intensity,[12]; [20],19.8 MFI
same,fluorescence intensity,[12]; [13],20.5 MFI
same,fluorescence intensity,[12]; [14],21.8 MFI

# Part of the list above, as tab-separated lines.
binder	measurement	setting	value
4-99.3 (protein) chain 1: QVQLQESGPGLVKPSETLSLTCAVSGYSISSGYYWGWIRQPPGKGLEYIGYISGSWGKSYYKPSLKSRVTISKDTSKNQFSLTLSSVTAADTAVYYCARRLEYVGFDVWGPGVLVTVSS chain 2: QAAPTQPPSVSGSPGQSVTISCTGTSSDIGYYNAVSWYQQHPGKAPKLMIYEVSKRPSGVSDRFSGSKSGNTASLTISGLQAEDEADYYCSSYAGSNTYIFGSGTRLTVL	fluorescence intensity	[2]; [15]	13.5 MFI
same	fluorescence intensity	[4]; [19]	15.5 MFI
same	fluorescence intensity	[6]; [19]	10.8 MFI
same	fluorescence intensity	[9]; [15]	12.5 MFI
same	fluorescence intensity	[11]; [19]	8.25 MFI
